Measurements published in publication PMC5427856.
These are yes or no findings as the source states them, for the method shown. Binding seen in cells or lysates may run through a third protein. Some entries that bind do so weakly or less than the wild type.

Sequences of proteins named here, by UniProt entry; tags and fusion partners are left off.
UniProt P70398: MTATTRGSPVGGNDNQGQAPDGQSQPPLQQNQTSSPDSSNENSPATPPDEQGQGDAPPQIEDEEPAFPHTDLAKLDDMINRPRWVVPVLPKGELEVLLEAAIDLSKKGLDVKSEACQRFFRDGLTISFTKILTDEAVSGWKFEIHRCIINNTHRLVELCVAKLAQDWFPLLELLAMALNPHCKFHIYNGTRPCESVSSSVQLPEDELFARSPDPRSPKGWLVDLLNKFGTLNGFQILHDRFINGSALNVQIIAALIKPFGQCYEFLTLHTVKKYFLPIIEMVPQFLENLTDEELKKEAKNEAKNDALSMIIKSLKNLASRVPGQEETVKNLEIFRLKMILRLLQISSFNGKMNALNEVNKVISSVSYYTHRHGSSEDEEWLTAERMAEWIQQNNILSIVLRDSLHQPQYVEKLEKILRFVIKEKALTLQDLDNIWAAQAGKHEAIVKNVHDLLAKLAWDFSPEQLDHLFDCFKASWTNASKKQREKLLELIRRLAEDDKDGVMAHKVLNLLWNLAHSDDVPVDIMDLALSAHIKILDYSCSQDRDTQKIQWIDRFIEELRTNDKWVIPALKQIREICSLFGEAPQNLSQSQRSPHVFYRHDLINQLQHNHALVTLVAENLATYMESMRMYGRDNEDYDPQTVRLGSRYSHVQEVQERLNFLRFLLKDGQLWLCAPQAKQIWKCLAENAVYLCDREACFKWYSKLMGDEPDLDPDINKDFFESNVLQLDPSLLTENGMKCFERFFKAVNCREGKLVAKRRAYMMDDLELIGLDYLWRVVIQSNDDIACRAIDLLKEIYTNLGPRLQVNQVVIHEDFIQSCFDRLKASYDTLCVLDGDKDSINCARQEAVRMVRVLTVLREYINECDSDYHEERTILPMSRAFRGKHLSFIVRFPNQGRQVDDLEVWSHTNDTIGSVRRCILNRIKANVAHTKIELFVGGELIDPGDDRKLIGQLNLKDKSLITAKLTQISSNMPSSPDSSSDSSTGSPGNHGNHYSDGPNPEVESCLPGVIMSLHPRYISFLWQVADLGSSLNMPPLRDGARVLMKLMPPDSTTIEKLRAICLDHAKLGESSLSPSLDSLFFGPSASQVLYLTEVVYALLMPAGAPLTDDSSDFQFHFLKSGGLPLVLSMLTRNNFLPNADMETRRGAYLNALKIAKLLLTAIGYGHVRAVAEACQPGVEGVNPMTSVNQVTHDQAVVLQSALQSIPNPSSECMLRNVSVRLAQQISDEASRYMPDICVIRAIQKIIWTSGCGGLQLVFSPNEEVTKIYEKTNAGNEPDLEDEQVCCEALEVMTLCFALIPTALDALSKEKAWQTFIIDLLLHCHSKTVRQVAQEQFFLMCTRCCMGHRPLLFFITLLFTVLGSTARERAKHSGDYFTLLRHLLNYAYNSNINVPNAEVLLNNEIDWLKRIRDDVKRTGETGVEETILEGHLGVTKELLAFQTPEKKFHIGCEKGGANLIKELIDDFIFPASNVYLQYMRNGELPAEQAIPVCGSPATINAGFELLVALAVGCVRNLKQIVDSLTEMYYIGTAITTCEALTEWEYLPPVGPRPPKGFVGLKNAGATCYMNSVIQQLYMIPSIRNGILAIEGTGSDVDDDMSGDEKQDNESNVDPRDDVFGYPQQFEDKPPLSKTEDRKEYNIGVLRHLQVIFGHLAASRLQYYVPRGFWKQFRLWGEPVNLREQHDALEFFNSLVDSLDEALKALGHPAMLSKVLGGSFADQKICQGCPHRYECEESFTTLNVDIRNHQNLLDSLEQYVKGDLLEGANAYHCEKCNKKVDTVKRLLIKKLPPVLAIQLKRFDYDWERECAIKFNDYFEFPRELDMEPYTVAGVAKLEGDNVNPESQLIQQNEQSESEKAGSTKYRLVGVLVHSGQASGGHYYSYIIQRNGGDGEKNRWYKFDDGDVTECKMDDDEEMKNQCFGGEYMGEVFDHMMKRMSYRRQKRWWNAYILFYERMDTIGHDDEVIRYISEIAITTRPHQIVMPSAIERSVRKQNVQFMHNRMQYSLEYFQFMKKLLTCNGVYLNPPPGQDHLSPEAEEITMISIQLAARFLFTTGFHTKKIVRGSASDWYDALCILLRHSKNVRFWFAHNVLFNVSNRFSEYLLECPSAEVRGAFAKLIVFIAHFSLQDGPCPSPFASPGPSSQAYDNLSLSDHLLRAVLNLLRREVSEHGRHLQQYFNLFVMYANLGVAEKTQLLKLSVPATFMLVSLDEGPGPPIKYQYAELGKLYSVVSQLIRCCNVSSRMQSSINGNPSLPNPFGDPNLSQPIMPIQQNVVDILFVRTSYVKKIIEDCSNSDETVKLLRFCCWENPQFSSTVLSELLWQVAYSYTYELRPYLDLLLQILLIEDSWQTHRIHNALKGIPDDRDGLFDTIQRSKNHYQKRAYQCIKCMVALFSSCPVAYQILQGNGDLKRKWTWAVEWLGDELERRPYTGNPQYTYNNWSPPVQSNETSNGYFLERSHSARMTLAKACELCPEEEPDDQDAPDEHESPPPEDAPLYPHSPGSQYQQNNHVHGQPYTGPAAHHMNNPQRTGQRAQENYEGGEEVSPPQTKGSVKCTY
UniProt Q8K4Q0: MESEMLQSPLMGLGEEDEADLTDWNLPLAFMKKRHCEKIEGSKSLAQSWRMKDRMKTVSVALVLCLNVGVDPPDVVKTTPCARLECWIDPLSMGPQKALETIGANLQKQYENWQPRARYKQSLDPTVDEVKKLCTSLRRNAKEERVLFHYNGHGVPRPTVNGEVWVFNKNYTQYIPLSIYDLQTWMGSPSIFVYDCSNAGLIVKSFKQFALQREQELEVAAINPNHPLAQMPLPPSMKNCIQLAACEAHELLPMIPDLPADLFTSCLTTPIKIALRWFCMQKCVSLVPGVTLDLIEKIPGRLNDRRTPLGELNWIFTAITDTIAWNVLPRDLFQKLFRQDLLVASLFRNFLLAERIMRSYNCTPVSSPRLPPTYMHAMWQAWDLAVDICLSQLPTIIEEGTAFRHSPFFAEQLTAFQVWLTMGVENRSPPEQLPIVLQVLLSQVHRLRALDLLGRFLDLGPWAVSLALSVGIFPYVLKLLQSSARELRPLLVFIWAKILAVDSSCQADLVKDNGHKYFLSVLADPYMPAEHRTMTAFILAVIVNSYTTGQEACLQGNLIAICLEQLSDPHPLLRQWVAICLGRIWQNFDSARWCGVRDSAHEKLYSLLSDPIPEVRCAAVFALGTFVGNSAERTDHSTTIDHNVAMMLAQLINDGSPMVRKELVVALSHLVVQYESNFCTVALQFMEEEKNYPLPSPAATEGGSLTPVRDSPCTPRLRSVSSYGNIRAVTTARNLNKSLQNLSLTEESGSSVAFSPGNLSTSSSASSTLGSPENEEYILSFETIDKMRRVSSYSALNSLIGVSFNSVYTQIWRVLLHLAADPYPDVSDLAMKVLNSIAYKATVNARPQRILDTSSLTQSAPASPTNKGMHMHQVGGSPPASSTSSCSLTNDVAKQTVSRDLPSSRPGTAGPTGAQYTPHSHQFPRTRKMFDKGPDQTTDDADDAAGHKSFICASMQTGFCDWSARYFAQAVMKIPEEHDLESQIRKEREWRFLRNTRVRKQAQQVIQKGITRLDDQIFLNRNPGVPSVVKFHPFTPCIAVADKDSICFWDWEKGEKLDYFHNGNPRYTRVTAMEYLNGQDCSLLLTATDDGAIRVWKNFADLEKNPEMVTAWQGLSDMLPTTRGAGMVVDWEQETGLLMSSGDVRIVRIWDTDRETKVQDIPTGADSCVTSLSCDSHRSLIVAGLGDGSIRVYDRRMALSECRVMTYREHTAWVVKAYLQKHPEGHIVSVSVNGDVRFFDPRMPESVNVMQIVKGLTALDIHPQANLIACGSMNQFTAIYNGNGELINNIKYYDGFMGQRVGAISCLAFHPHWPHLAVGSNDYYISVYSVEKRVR
UniProt Q8BSK8: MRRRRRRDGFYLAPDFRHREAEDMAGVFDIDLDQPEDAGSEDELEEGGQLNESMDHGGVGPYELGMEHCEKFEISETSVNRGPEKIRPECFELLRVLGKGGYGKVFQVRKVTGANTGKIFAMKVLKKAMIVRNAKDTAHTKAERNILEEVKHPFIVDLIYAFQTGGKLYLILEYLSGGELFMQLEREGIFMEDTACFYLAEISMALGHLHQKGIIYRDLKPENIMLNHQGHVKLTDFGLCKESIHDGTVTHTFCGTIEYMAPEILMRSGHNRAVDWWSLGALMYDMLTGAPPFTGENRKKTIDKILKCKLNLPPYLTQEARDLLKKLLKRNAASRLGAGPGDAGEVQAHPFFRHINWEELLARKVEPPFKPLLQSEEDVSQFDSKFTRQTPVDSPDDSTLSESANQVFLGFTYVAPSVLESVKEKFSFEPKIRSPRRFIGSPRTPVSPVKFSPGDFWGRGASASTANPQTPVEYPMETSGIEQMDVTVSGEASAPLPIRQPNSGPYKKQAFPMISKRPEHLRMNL

Legend:
[1] = molecular target: ubiquitin-specific protease 9 located on the X-chromosome (Usp9x), mouse (mouse (endogenous in E14.5 frontal cortex)) (UniProt P70398); assay: co-IP; endogenous proteins from lysate of E14.5 mouse frontal cortex; IP lysis buffer 20 mM HEPES pH 7.8, 400 mM KCl, 5 mM EDTA, 0.4% NP40, 10% glycerol, 1 mM DTT; Pierce co-immunoprecipitation kit with anti-Usp9x or anti-Raptor antibodies; immunoblot
[2] = molecular target: regulatory-associated protein of mTOR (Raptor), mouse (mouse (endogenous in E14.5 frontal cortex)) (UniProt Q8K4Q0); assay: as above

| Substance | binding [1] | binding [2] |
| --- | --- | --- |
| regulatory-associated protein of mTOR (Raptor), mouse (from UniProt Q8K4Q0 1-1335) | binds |  |
| ubiquitin-specific protease 9 located on the X-chromosome (Usp9x), mouse (from UniProt P70398 1-2559) (enzyme) |  | binds |
| p70S6 kinase, mouse (from UniProt Q8BSK8 1-525) (enzyme) | binds weakly |  |
